We go through five targets from the supplement of paper PMC6411743.

Chains of the proteins cited; added tags and fusions are not shown. Lines headed by an entry give the natural chain unless they say otherwise; changes in a name come on top.
UniProt Q16181: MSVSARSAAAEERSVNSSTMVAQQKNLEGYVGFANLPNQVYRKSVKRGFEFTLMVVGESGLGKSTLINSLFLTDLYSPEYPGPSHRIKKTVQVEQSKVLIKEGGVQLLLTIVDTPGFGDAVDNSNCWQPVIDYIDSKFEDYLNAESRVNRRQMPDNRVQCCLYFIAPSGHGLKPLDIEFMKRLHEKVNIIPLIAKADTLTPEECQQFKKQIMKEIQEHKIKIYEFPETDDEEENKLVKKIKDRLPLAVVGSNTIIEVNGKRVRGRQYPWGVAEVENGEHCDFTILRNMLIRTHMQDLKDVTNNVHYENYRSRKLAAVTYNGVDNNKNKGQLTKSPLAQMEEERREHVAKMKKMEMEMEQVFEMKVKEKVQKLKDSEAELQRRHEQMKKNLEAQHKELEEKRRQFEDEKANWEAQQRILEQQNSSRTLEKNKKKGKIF
UniProt Q15276: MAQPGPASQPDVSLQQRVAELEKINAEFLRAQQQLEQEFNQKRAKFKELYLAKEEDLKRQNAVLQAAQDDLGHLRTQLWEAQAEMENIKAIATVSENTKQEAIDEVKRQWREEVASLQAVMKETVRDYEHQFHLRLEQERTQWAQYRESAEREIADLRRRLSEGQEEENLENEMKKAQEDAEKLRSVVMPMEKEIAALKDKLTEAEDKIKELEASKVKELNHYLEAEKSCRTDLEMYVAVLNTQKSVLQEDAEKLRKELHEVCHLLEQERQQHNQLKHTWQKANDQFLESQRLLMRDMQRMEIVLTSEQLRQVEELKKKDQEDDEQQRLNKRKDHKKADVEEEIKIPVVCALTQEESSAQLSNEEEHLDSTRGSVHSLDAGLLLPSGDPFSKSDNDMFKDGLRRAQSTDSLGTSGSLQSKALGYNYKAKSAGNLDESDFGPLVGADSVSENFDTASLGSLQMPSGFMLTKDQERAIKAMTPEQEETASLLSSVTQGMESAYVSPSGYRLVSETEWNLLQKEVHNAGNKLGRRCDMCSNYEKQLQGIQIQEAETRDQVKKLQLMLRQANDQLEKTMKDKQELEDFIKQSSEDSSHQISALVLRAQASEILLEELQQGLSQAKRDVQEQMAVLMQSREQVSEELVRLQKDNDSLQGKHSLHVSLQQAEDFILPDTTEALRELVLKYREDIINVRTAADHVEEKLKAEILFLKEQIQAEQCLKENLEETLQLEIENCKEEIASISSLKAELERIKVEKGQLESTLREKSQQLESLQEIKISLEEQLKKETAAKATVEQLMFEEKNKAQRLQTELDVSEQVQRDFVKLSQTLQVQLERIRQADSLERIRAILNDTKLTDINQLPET
UniProt Q15833: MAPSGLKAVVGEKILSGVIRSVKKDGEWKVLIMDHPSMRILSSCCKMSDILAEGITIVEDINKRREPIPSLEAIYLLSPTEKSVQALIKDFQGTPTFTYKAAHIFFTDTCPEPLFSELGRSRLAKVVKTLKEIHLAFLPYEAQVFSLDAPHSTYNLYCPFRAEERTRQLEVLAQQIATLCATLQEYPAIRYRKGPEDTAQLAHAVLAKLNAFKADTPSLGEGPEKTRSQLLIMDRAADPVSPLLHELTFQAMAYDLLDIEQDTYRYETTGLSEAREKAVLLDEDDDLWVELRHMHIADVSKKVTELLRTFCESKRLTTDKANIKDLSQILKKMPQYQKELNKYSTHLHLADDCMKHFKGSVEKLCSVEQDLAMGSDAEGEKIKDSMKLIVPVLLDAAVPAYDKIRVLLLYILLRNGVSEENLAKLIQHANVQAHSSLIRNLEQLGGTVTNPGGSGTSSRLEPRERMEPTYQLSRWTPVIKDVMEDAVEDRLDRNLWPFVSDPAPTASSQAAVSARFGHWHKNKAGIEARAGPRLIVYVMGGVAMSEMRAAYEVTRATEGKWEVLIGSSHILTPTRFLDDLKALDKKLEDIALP
UniProt Q2NL82: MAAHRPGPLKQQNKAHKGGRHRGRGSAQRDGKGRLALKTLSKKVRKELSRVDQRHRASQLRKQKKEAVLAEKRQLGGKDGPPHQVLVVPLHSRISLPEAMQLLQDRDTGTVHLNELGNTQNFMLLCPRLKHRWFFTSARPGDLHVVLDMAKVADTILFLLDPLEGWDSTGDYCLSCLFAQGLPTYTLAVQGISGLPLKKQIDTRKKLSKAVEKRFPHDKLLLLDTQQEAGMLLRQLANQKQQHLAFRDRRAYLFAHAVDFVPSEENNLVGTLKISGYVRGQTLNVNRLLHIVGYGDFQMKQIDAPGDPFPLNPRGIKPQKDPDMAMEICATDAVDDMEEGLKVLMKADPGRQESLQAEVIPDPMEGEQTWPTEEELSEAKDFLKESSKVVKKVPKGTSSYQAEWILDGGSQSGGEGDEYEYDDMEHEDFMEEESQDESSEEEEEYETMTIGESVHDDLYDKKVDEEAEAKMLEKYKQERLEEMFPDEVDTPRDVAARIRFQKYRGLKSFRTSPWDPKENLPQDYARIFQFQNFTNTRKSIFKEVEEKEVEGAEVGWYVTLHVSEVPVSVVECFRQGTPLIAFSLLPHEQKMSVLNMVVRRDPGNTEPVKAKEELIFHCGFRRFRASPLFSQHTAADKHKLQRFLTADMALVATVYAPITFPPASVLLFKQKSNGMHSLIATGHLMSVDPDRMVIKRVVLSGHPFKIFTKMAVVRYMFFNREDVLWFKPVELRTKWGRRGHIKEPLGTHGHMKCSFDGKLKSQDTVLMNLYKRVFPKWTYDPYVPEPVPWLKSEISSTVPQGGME
UniProt Q16854: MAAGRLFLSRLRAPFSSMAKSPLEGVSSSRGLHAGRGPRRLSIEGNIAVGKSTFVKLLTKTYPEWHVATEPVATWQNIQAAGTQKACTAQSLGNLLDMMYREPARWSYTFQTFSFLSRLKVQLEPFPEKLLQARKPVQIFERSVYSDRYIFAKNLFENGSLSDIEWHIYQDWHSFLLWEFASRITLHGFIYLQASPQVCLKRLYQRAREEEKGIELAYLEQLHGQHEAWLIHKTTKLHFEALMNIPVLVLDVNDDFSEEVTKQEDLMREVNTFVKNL

± gives the standard deviation of the averaged measurements. This is a selection; strong and weak results do not stand in their true shares. Most values lie at the level of the controls, where differences are scatter.

Compound in this experiment: Nc1ncnc2c1ncn2[C@@H]1O[C@H](COP(=O)(O)OP(=O)(O)NP(=O)(O)O)[C@@H](O)[C@H]1O [adenylyl imidodiphosphate]
Kind of experiment: NP40-soluble protein abundance relative to vehicle (solubility fold change) (ratio); higher = more soluble protein in presence of AMP-PNP. The procedure, abridged: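 Jurkat crude lysate prepared with a Dounce homogeniser was treated at eight concentrations spanning 0.1 to 10 mM, 10 min at room temperature then 3 min at 37 °C. Solubilisation with 0.8% NP40 and benzonase and ultracentrifugation preceded TMT labelling of the supernatant for LC-MS/MS. Fold change against the detergent-processed vehicle was determined per replicate from vsn-normalised intensities, across three independent experiments.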

Regarding UniProt Q16181 and related entries, the NP40-soluble protein abundance (concentration: 0.1mM) amounted to 0.9853 ± 0.0087 and the NP40-soluble protein abundance (concentration: 0.5mM) came out at 1.03 ± 0.036.
With RABEP1 (UniProt Q15276), the NP40-soluble protein abundance is 0.97 ± 0.034 (concentration: 0.1mM) and 0.996 ± 0.026 (concentration: 0.5mM).
Turning to STXBP2 (UniProt Q15833), the NP40-soluble protein abundance (concentration: 0.1mM) was found to be 1 ± 0.026 and the NP40-soluble protein abundance (concentration: 0.5mM) was 0.96 ± 0.032.
The matching figures for TSR1 (UniProt Q2NL82): 0.946 ± 0.035 and 0.883 ± 0.017.
As for UniProt Q16854 and related entries, the NP40-soluble protein abundance was found to be 0.999 ± 0.03 (concentration: 0.1mM) and 0.93 ± 0.082 (concentration: 0.5mM).
